PubChem BioAssay AID1508597, Cure First – 2020

Aim: 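Genes whose silencing sensitises or protects ovarian cancer cells against rucaparib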 (primary screen)
Cell system: human ovarian carcinoma lines grown from tumours: OCI-P5x (papillary serous) and OCI-C5x (clear cell)
Reagent: siRNA pool against human genes, 1.25 pmol siRNA per well
Time to read-out: 72 h or 96 h, depending on the cell culture
Challenge: rucaparib 20 µM (about IC30) or vehicle, present until read-out
Rucaparib or vehicle: Rucaparib
Cell line: OCI-C5x (clear cell)
Detection: 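Luminescent ATP-based viability assay read 72 or 96 h after transfection, depending on culture, given as normalised percent viability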
Scale: viability, normalised: higher = more viable cells remaining
Hit rule: 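a well counts as a hit if its normalised viability is under 80 percent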
Meaning of the calls: active = viability under 80%; inactive = viability 80% or more
This is an unselected part of the about 2,100 reagents, in one setting of the screen. 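Calls flag viability under 80% in either arm, not effects specific to rucaparib; the reference for percent is not stated.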 A reagent listed more than once was tested more than once; the source does not tell the runs apart. Not given: the 100% reference.

| Gene | technical replicate | viability, normalised (%) | Outcome |
| --- | --- | --- | --- |
| PSMC2 (GeneID 5701) | 1 | 37.7 | active |
| PSMC2 (GeneID 5701) | 2 | 52.7 | active |
| PSMC2 (GeneID 5701) | 3 | 51.4 | active |
| STC1 (GeneID 6781) | 1 | 55 | active |
| STC1 (GeneID 6781) | 2 | 57.5 | active |
| STC1 (GeneID 6781) | 3 | 70.3 | active |
| DOT1L (GeneID 84444) | 1 | 32.7 | active |
| DOT1L (GeneID 84444) | 2 | 30.4 | active |
| DOT1L (GeneID 84444) | 3 | 44.6 | active |
| IGHMBP2 (GeneID 3508) | 1 | 37.2 | active |
| IGHMBP2 (GeneID 3508) | 1 | 38.8 | active |
| IGHMBP2 (GeneID 3508) | 2 | 65.1 | active |
| IGHMBP2 (GeneID 3508) | 2 | 33.1 | active |
| IGHMBP2 (GeneID 3508) | 3 | 61.8 | active |
| IGHMBP2 (GeneID 3508) | 3 | 34.1 | active |
| UBR5 (GeneID 51366) | 1 | 50.7 | active |
| UBR5 (GeneID 51366) | 2 | 49.8 | active |
| UBR5 (GeneID 51366) | 3 | 52.4 | active |
| KDM4C (GeneID 23081) | 1 | 58.8 | active |
| KDM4C (GeneID 23081) | 2 | 55.6 | active |
| KDM4C (GeneID 23081) | 3 | 46.3 | active |
| SENP5 (GeneID 205564) | 1 | 55 | active |
| SENP5 (GeneID 205564) | 2 | 64.6 | active |
| SENP5 (GeneID 205564) | 3 | 52.3 | active |
| RDM1 (GeneID 201299) | 1 | 40.9 | active |
| RDM1 (GeneID 201299) | 2 | 57.6 | active |
| RDM1 (GeneID 201299) | 3 | 50.9 | active |
| JAK3 (GeneID 3718) | 1 | 57.9 | active |
| JAK3 (GeneID 3718) | 2 | 73.4 | active |
| JAK3 (GeneID 3718) | 3 | 63 | active |
| FEN1 (GeneID 2237) | 1 | 55.3 | active |
| FEN1 (GeneID 2237) | 2 | 39.9 | active |
| FEN1 (GeneID 2237) | 3 | 49.5 | active |
| PDK3 (GeneID 5165) | 1 | 30.5 | active |
| PDK3 (GeneID 5165) | 2 | 49.4 | active |
| PDK3 (GeneID 5165) | 3 | 69.7 | active |
| SUV39H2 (GeneID 79723) | 1 | 40.9 | active |
| SUV39H2 (GeneID 79723) | 2 | 44.5 | active |
| SUV39H2 (GeneID 79723) | 3 | 40.8 | active |
| LPA (GeneID 4018) | 1 | 54.2 | active |
| LPA (GeneID 4018) | 2 | 43.2 | active |
| LPA (GeneID 4018) | 3 | 45.4 | active |
| PRDM16 (GeneID 63976) | 1 | 60.9 | active |
| PRDM16 (GeneID 63976) | 2 | 39.2 | active |
| PRDM16 (GeneID 63976) | 3 | 34.6 | active |
| RASA3 (GeneID 22821) | 1 | 66.1 | active |
| RASA3 (GeneID 22821) | 2 | 52.3 | active |
| RASA3 (GeneID 22821) | 3 | 45.9 | active |
| TAF1L (GeneID 138474) | 1 | 61.1 | active |
| TAF1L (GeneID 138474) | 1 | 44.1 | active |
| TAF1L (GeneID 138474) | 2 | 40.3 | active |
| TAF1L (GeneID 138474) | 2 | 60 | active |
| TAF1L (GeneID 138474) | 3 | 51.1 | active |
| TAF1L (GeneID 138474) | 3 | 33.8 | active |
| S100A4 (GeneID 6275) | 1 | 48.7 | active |
| S100A4 (GeneID 6275) | 2 | 45.2 | active |
| S100A4 (GeneID 6275) | 3 | 41.9 | active |
| NEIL2 (GeneID 252969) | 1 | 62.5 | active |
| NEIL2 (GeneID 252969) | 2 | 59.3 | active |
| NEIL2 (GeneID 252969) | 3 | 63.3 | active |
| FGFR4 (GeneID 2264) | 1 | 51.6 | active |
| FGFR4 (GeneID 2264) | 2 | 62.2 | active |
| FGFR4 (GeneID 2264) | 3 | 57.9 | active |
| ADGRA3 (GeneID 166647) | 1 | 52.3 | active |
| ADGRA3 (GeneID 166647) | 2 | 53.6 | active |
| ADGRA3 (GeneID 166647) | 3 | 43.2 | active |
| ADK (GeneID 132) | 1 | 92.1 | inactive |
| ADK (GeneID 132) | 2 | 97.5 | inactive |
| ADK (GeneID 132) | 3 | 68.7 | active |
| LBR (GeneID 3930) | 1 | 53.2 | active |
| LBR (GeneID 3930) | 2 | 35.3 | active |
| LBR (GeneID 3930) | 3 | 48 | active |
| PCDHB5 (GeneID 26167) | 1 | 48.2 | active |
| PCDHB5 (GeneID 26167) | 2 | 43.4 | active |
| PCDHB5 (GeneID 26167) | 3 | 43 | active |

Laid out differently: results already given.
{"Gene": "TAF1L (GeneID 138474)", "technical replicate": "2", "viability, normalised (%)": 40.3, "Outcome": "active"}
{"Gene": "TAF1L (GeneID 138474)", "technical replicate": "2", "viability, normalised (%)": 60, "Outcome": "active"}
{"Gene": "TAF1L (GeneID 138474)", "technical replicate": "3", "viability, normalised (%)": 51.1, "Outcome": "active"}
{"Gene": "TAF1L (GeneID 138474)", "technical replicate": "3", "viability, normalised (%)": 33.8, "Outcome": "active"}
